{"source": "the supplement of paper PMC6119338", "note": "± gives the standard deviation of the averaged measurements. The list shows a part of the results. Many values rest on one well or one pass, so single values are uncertain."}
{"tested_on": "Plasmodium berghei sporozoites", "assay": "residual sporozoite gliding motility relative to DMSO control; higher = less inhibition of motility", "conditions": "10 µM; incubation time 30 min", "units": {"residual sporozoite gliding motility": "%"}}
{"smiles": "Oc1c(CN2CCN(c3ccccc3F)CC2)cc(Br)c2cccnc12", "residual sporozoite gliding motility": "55 ± 35"}
{"smiles": "COc1cc(C(=O)Nc2ccc(-c3nc4ccccc4[nH]3)cc2)cc(OC)c1OC", "residual sporozoite gliding motility": "> 50"}
{"smiles": "COc1ccc(N2CCN(C(CNC(=O)CC(C)(C)C)c3ccc4c(c3)OCO4)CC2)cc1", "note": "(centres undefined)", "residual sporozoite gliding motility": "> 50"}
{"smiles": "CCCCc1c(C)nc2c(OC)cccc2c1O", "residual sporozoite gliding motility": "> 50"}
{"smiles": "CCOc1cc(Cl)c(C(C)NC(=O)c2cccc(OC)c2)cc1OCC", "note": "(centres undefined)", "residual sporozoite gliding motility": "> 50"}
{"smiles": "O=C(Nc1ccc(C23CC4CC(CC(c5ccccc5)(C4)C2)C3)cc1)c1cccs1", "residual sporozoite gliding motility": "> 50"}
{"smiles": "Cc1ccc(-c2cc3nc4c(c(O)n3n2)CCCC4)cc1", "residual sporozoite gliding motility": "> 50"}
{"smiles": "CCC(C)NCC(O)(c1ccc(Cl)cc1)c1ccc(Cl)cc1", "note": "(centres undefined)", "residual sporozoite gliding motility": "> 50"}
{"smiles": "CCOc1ccc(/C=C/c2nc(=O)c3ccccc3o2)cc1", "residual sporozoite gliding motility": "> 50"}
{"smiles": "CN(C)CCNc1cc(-c2ccccc2)nc2ccccc12", "residual sporozoite gliding motility": "> 50"}
{"smiles": "C=C(C)CCC(C)N1CCC(N2CCC(C(=O)NCCc3ccccc3)CC2)CC1", "note": "(centres undefined)", "residual sporozoite gliding motility": "> 50"}
{"smiles": "c1ccc2c(NCCc3c[nH]c4ccccc34)c3ccccc3nc2c1", "residual sporozoite gliding motility": "> 50"}
{"smiles": "Nc1ccn([C@@H]2O[C@H](CO)[C@@H](O)[C@H]2O)c(=O)n1", "residual sporozoite gliding motility": "> 50"}
{"smiles": "CCCc1c(C)nc2ccc(Br)cc2c1O", "residual sporozoite gliding motility": "> 50"}
{"smiles": "Clc1ccc2c(N3CCCC3)ccnc2c1", "residual sporozoite gliding motility": "> 50"}
{"smiles": "COc1ccc(-n2ccnc2SCC(=O)Nc2cc(C)ccc2C)c(OC)c1", "residual sporozoite gliding motility": "> 50"}
{"smiles": "O=C(NC1CCCC1)c1ccc(N2CCC(NCc3cccc(C(F)(F)F)c3)CC2)cc1", "residual sporozoite gliding motility": "> 50"}
{"smiles": "CNCCCNc1ccnc2cc(Cl)ccc12", "residual sporozoite gliding motility": "> 50"}
{"smiles": "Cc1ccc(N2C3c4ccccc4N(S(=O)(=O)c4ccc(C)cc4)C2c2ccccc2N3S(=O)(=O)c2ccc(C)cc2)cc1", "residual sporozoite gliding motility": "> 50"}
